Experimental data taken from paper PMC3034716.
Results are given in words; binding and its absence hold for the method and conditions named.

Target: T1, ATP synthase α-subunit (endothelial cell membrane proteins) (human (endogenous in HUVEC)), P25705
T1 chain: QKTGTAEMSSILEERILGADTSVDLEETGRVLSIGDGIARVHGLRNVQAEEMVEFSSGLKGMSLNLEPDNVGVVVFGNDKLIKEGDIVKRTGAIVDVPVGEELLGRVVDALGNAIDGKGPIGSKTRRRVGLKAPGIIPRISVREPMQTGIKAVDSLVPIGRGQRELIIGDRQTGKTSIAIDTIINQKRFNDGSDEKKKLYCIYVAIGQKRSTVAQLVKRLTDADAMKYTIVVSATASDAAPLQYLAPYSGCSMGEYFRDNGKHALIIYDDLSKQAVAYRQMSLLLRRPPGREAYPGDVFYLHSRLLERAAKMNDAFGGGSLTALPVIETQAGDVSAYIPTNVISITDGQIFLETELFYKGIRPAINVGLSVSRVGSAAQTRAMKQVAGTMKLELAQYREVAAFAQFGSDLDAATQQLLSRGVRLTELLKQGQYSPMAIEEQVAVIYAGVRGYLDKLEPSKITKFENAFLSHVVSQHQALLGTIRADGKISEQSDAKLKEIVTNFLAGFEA
Assay: far-Western, overlay or dot blot; HUVEC membrane-enriched proteins resolved on bidimensional gels, blotted onto PVDF, incubated with 2 µg/ml recombinant hsp60, probed with anti-hsp60 mAb (clone LK-1); additional spots cut from a Coomassie-stained gel and identified by MALDI mass spectrometry; only the binder purified
Conditions: remark: other sources report otherwise

binding: no binding
B1: recombinant hsp60, P10809 27-573 (protein)
chain: AKDVKFGADARALMLQGVDLLADAVAVTMGPKGRTVIIEQSWGSPKVTKDGVTVAKSIDLKDKYKNIGAKLVQDVANNTNEEAGDGTTTATVLARSIAKEGFEKISKGANPVEIRRGVMLAVDAVIAELKKQSKPVTTPEEIAQVATISANGDKEIGNIISDAMKKVGRKGVITVKDGKTLNDELEIIEGMKFDRGYISPYFINTSKGQKCEFQDAYVLLSEKKISSIQSIVPALEIANAHRKPLVIIAEDVDGEALSTLVLNRLKVGLQVVAVKAPGFGDNRKNQLKDMAIATGGAVFGEEGLTLNLEDVQPHDLGKVGEVIVTKDDAMLLKGKGDKAQIEKRIQEIIEQLDVTTSEYEKEKLNERLAKLSDGVAVLKVGGTSDVEVNEKKDRVTDALNATRAAVEEGIVLGGGCALLRCIPALDSLTPANEDQKIGIEIIKRTLKIPAMTIAKNAGVEGSLIVEKIMQSSSEVGYDAMAGDFVNMVEKGIIDPTKVVRTALLDAAGVASLLTTAEVVVTEIPKEEKDPGMGAMGGMGGGMGGGMF
